According to ChEMBL document CHEMBL1687827, “Profiling the Aspergillus fumigatus proteome in response to caspofungin” (2011):
The source gives many values for each of these; only a part stands here.

Assays:
Assay type in all cases: functional
Aspergillus fumigatus [1] = experiment: Induction of change in cytosolic large ribosomal subunit protein L30 protein level in iTRAQ114 labelled secreted fraction of drug-susceptible Aspergillus fumigatus KU80 delta-akuB at 0.12 ug/ml after 24 hrs in YPD medium by MS (MS/MS) analysis relative to control
Aspergillus fumigatus [2] = experiment: Induction of change in aconitate hydratase, mitochondrial protein level in iTRAQ-116 labelled cell wall fraction of drug-susceptible Aspergillus fumigatus KU80 delta-akuB at 0.12 ug/ml after 48 hrs in YPD medium by MS (MS/MS) analysis relative to control
Aspergillus fumigatus [3] = experiment: Induction of change in neutral amino acid permease gene expression in drug-susceptible Aspergillus fumigatus KU80 delta-akuB at 0.12 ug/ml after 48 hrs in YPD medium by microarray analysis relative to control
Aspergillus fumigatus [4] = experiment: Induction of change in ribosomal protein S15, putative gene expression in drug-susceptible Aspergillus fumigatus KU80 delta-akuB at 0.12 ug/ml after 24 hrs in YPD medium by microarray analysis relative to control
Aspergillus fumigatus [5] = experiment: Induction of change in Mitochondrial hypoxia-responsive domain protein level in iTRAQ114 labelled cell wall fraction of drug-susceptible Aspergillus fumigatus KU80 delta-akuB at 0.12 ug/ml after 24 hrs in YPD medium by MS (MS/MS) analysis relative to control
Aspergillus fumigatus [6] = experiment: Induction of change in 60S ribosomal protein L1 protein level in iTRAQ114 labelled secreted fraction of drug-susceptible Aspergillus fumigatus KU80 delta-akuB at 0.12 ug/ml after 24 hrs in YPD medium by MS (MS/MS) analysis relative to control
Aspergillus fumigatus [7] = experiment: Induction of change in 60S ribosomal protein L22, putative protein level in iTRAQ114 labelled cell wall fraction of drug-susceptible Aspergillus fumigatus KU80 delta-akuB at 0.12 ug/ml after 24 hrs in YPD medium by MS (MS/MS) analysis relative to control
Aspergillus fumigatus [8] = experiment: Induction of change in Ribosomal protein L31e protein level in iTRAQ114 labelled secreted fraction of drug-susceptible Aspergillus fumigatus KU80 delta-akuB at 0.12 ug/ml after 24 hrs in YPD medium by MS (MS/MS) analysis relative to control
Aspergillus fumigatus [9] = experiment: Induction of change in transaldolase protein level in iTRAQ-116 labelled secreted fraction of drug-resistant Aspergillus fumigatus EMFR-S678P at 0.12 ug/ml after 48 hrs in YPD medium by MS (MS/MS) analysis relative to control
Aspergillus fumigatus [10] = experiment: Induction of change in GNAT family acetyltransferase, putative protein level in iTRAQ-116 labelled secreted fraction of drug-susceptible Aspergillus fumigatus KU80 delta-akuB at 0.12 ug/ml after 48 hrs in YPD medium by MS (MS/MS) analysis relative to control
Aspergillus fumigatus [11] = experiment: Induction of change in cell wall biogenesis protein phosphatase Ssd1, putative protein level in iTRAQ-118 labelled cell wall fraction of drug-susceptible Aspergillus fumigatus KU80 delta-akuB at 0.12 ug/ml after 24 hrs in YPD medium by MS (MS/MS) analysis relative to control
Aspergillus fumigatus [12] = experiment: Induction of change in isocitrate dehydrogenase Idp1, putative protein level in iTRAQ-116 labelled secreted fraction of drug-resistant Aspergillus fumigatus EMFR-S678P at 0.12 ug/ml after 48 hrs in YPD medium by MS (MS/MS) analysis relative to control
Aspergillus fumigatus [13] = experiment: Induction of change in IgE-binding protein level in iTRAQ-116 labelled cell wall fraction of drug-susceptible Aspergillus fumigatus KU80 delta-akuB at 0.12 ug/ml after 48 hrs in YPD medium by MS (MS/MS) analysis relative to control
Aspergillus fumigatus [14] = experiment: Induction of change in Ribosomal protein L31e gene expression in drug-susceptible Aspergillus fumigatus KU80 delta-akuB at 0.12 ug/ml after 24 hrs in YPD medium by microarray analysis relative to control
Aspergillus fumigatus [15] = experiment: Induction of change in 14-alpha sterol demethylase Cyp51A protein level in iTRAQ-118 labelled cell wall fraction of drug-susceptible Aspergillus fumigatus KU80 delta-akuB at 0.12 ug/ml after 24 hrs in YPD medium by MS (MS/MS) analysis relative to control
Aspergillus fumigatus [16] = experiment: Induction of change in allergen Asp F3 protein level in iTRAQ-116 labelled secreted fraction of drug-susceptible Aspergillus fumigatus KU80 delta-akuB at 0.12 ug/ml after 48 hrs in YPD medium by MS (MS/MS) analysis relative to control
Aspergillus fumigatus [17] = experiment: Induction of change in aldehyde dehydrogenase, putative protein level in iTRAQ114 labelled secreted fraction of drug-susceptible Aspergillus fumigatus KU80 delta-akuB at 0.12 ug/ml after 24 hrs in YPD medium by MS (MS/MS) analysis relative to control
Aspergillus fumigatus [18] = experiment: Induction of change in CFEM domain protein, putative gene expression in drug-susceptible Aspergillus fumigatus KU80 delta-akuB at 0.12 ug/ml after 24 hrs in YPD medium by microarray analysis relative to control
Aspergillus fumigatus [19] = experiment: Induction of change in vip1 gene expression in drug-susceptible Aspergillus fumigatus KU80 delta-akuB at 0.12 ug/ml after 48 hrs in YPD medium by microarray analysis relative to control
Aspergillus fumigatus [20] = experiment: Induction of change in hypothetical protein level in iTRAQ114 labelled secreted fraction of drug-resistant Aspergillus fumigatus EMFR-S678P at 0.12 ug/ml after 24 hrs in YPD medium by MS (MS/MS) analysis relative to control
Aspergillus fumigatus [21] = experiment: Induction of change in extracellular conserved serine-rich protein level in iTRAQ-116 labelled secreted fraction of drug-susceptible Aspergillus fumigatus KU80 delta-akuB at 0.12 ug/ml after 48 hrs in YPD medium by MS (MS/MS) analysis relative to control
Aspergillus fumigatus [22] = experiment: Induction of change in transaldolase protein level in iTRAQ114 labelled secreted fraction of drug-resistant Aspergillus fumigatus EMFR-S678P at 0.12 ug/ml after 24 hrs in YPD medium by MS (MS/MS) analysis relative to control
Aspergillus fumigatus [23] = experiment: Induction of change in thioredoxin protein level in iTRAQ-118 labelled cell wall fraction of drug-susceptible Aspergillus fumigatus KU80 delta-akuB at 0.12 ug/ml after 24 hrs in YPD medium by MS (MS/MS) analysis relative to control
Aspergillus fumigatus [24] = experiment: Induction of change in cytochrome b5, putative protein level in iTRAQ114 labelled secreted fraction of drug-susceptible Aspergillus fumigatus KU80 delta-akuB at 0.12 ug/ml after 24 hrs in YPD medium by MS (MS/MS) analysis relative to control
Aspergillus fumigatus [25] = experiment: Induction of change in 40S ribosomal protein S9 protein level in iTRAQ114 labelled cell wall fraction of drug-susceptible Aspergillus fumigatus KU80 delta-akuB at 0.12 ug/ml after 24 hrs in YPD medium by MS (MS/MS) analysis relative to control

CC[C@H](C)C[C@H](C)CCCCCCCCC(=O)N[C@H]1C[C@@H](O)[C@@H](NCCN)NC(=O)[C@@H]2[C@@H](O)CCN2C(=O)[C@H]([C@H](O)CCN)NC(=O)[C@H]([C@H](O)[C@@H](O)c2ccc(O)cc2)NC(=O)[C@@H]2C[C@@H](O)CN2C(=O)[C@H]([C@@H](C)O)NC1=O [CASPOFUNGIN]
fold change (FC) (Aspergillus fumigatus [1]): 1.4 | fold change (FC) (Aspergillus fumigatus [2]): 1.2 | fold change (FC) (Aspergillus fumigatus [3]): -3.3 | fold change (FC) (Aspergillus fumigatus [4]): 3.9 | fold change (FC) (Aspergillus fumigatus [5]): -6.1 | fold change (FC) (Aspergillus fumigatus [6]): -1.2 | fold change (FC) (Aspergillus fumigatus [7]): 2 | fold change (FC) (Aspergillus fumigatus [8]): 1.2 | fold change (FC) (Aspergillus fumigatus [9]): -1.07 | fold change (FC) (Aspergillus fumigatus [10]): -2 | fold change (FC) (Aspergillus fumigatus [11]): -2.5 | fold change (FC) (Aspergillus fumigatus [12]): -1.07 | fold change (FC) (Aspergillus fumigatus [13]): 1.1 | fold change (FC) (Aspergillus fumigatus [14]): 6.8 | fold change (FC) (Aspergillus fumigatus [15]): -2.6 | fold change (FC) (Aspergillus fumigatus [16]): 3.5 | fold change (FC) (Aspergillus fumigatus [17]): 2.1 | fold change (FC) (Aspergillus fumigatus [18]): -6.5 | fold change (FC) (Aspergillus fumigatus [19]): -2.2 | fold change (FC) (Aspergillus fumigatus [20]): -1.07 | fold change (FC) (Aspergillus fumigatus [21]): 2.6 | fold change (FC) (Aspergillus fumigatus [22]): -1.41 | fold change (FC) (Aspergillus fumigatus [23]): -2 | fold change (FC) (Aspergillus fumigatus [24]): -2 | fold change (FC) (Aspergillus fumigatus [25]): 2
